Numbering of substitutions follows the chain as printed. Names and notes keep the numbering of the source. Results are given in words; binding and its absence hold for the method and conditions named. Blank lines part the entries; values can stand above or below the binder they belong to.
Tests used:
Assay in all cases: SEC; Superdex 200 10/300 GL, room temperature, 0.5 ml/min, 50 mM NaHEPES pH 7.5, 150 mM NaCl, 2.5 mM β-mercaptoethanol; protein prepared under reducing conditions; both purified
[1] = target: YggS ΔK233/K234 variant (E. coli) (UniProt P67080)
[2] = target: YggS K36A/K137A variant (E. coli) (UniProt P67080)
[3] = target: YggS K36A/K233A/K234A variant (E. coli) (UniProt P67080)
[4] = target: YggS K36A/K38A/K137A/K233A/K234A variant (E. coli) (UniProt P67080)
[5] = target: YggS K38A/K137A/K233A/K234A variant (E. coli) (UniProt P67080)
[6] = target: YggS K36A/K38A/K137A variant (E. coli) (UniProt P67080)
[7] = target: YggS K36A/K137A/K233A/K234A variant (E. coli) (UniProt P67080)
[8] = target: YggS K36A/K38A/K233A/K234A variant (E. coli) (UniProt P67080)
[9] = target: YggS K36A/K38A variant (E. coli) (UniProt P67080)
[10] = target: YggS K36A variant (E. coli) (UniProt P67080)
[11] = target: YggS K137A variant (E. coli) (UniProt P67080)

B2: YggS K36A/K137A variant (protein, UniProt P67080 1-234)
chain: MNDIAHNLAQVRDKISAAATRCGRSPEEITLLAVSATKPASAIAEAIDAGQRQFGENYVQEGVDKIRHFQELGVTGLEWHFIGPLQSNKSRLVAEHFDWCHTIDRLRIATRLNDQRPAELPPLNVLIQINISDENSASGIQLAELDELAAAVAELPRLRLRGLMAIPAPESEYVRQFEVARQMAVAFAGLKTRYPHIDTLSLGMSDDMEAAIAAGSTMVRIGTAIFGARDYSKK
binding [2]: no binding

B4: YggS K36A/K38A/K137A/K233A/K234A variant (protein, UniProt P67080 1-234)
chain: B2 chain with K38A, K233A, K234A
binding [4]: no binding

B6: YggS K36A/K38A/K137A variant (protein, UniProt P67080 1-234)
chain: B2 chain with K38A
binding [6]: no binding

B8: YggS K36A/K38A/K233A/K234A variant (protein, UniProt P67080 1-234)
chain: B2 chain with K38A, A137K, K233A, K234A
binding [8]: no binding

B9: YggS K36A/K38A variant (protein, UniProt P67080 1-234)
chain: B2 chain with K38A, A137K
binding [9]: no binding

B10: YggS K36A variant (protein, UniProt P67080 1-234)
chain: B2 chain with A137K
binding [10]: no binding

Further lines, results first:

binding [1]: no binding
B1: YggS ΔK233/K234 variant (protein, UniProt P67080 1-234)
chain: MNDIAHNLAQVRDKISAAATRCGRSPEEITLLAVSKTKPASAIAEAIDAGQRQFGENYVQEGVDKIRHFQELGVTGLEWHFIGPLQSNKSRLVAEHFDWCHTIDRLRIATRLNDQRPAELPPLNVLIQINISDENSKSGIQLAELDELAAAVAELPRLRLRGLMAIPAPESEYVRQFEVARQMAVAFAGLKTRYPHIDTLSLGMSDDMEAAIAAGSTMVRIGTAIFGARDYS

binding [3]: no binding
B3: YggS K36A/K233A/K234A variant (protein, UniProt P67080 1-234)
chain: B2 chain with A137K, K233A, K234A

binding [5]: no binding
B5: YggS K38A/K137A/K233A/K234A variant (protein, UniProt P67080 1-234)
chain: B2 chain with A36K, K38A, K233A, K234A

binding [7]: no binding
B7: YggS K36A/K137A/K233A/K234A variant (protein, UniProt P67080 1-234)
chain: B2 chain with K233A, K234A

binding [11]: no binding
B11: YggS K137A variant (protein, UniProt P67080 1-234)
chain: B2 chain with A36K

From article PMC9601805, “Characterization of the Escherichia coli pyridoxal 5′‐phosphate homeostasis protein (YggS): Role of lysine residues in PLP binding and protein stability” (Protein Science : A Publication of the Protein Society, 2022)
